Experimental data reported in patent US10758634B2, “Compounds, compositions and associated methods using zirconium-89 in immuno-positron emission tomography” (Wake Forest University, priority 2016, dated 2020).
Some of these results come from one statement about several compounds together. At least one compound was matched to its structure with a doubt left.

Test: Acute in vivo biodistribution of ^89Zr-complexes in normal mice
Set-up: species or system NIH Swiss mice
Conditions: post-injection; n=6/group
Protocol: NIH Swiss mice (n=6/time point) will be injected with the ^89Zr-AMC (0.56 MBq (15 μCi)), and then sacrificed at 1, 4, 24, 48 and 72 h post-injection (p.i.). Organs of interest will be removed, weighed and counted on a gamma counter. Percent injected dose per gram (% ID/g) and percent injected dose per organ (% ID/organ) will be counted and compared to a weighed, counted standard for all groups.
The in vivo stability of ^89Zr-DOTA, ^89Zr-DOTP, and ^89Zr-DOTAM were then evaluated in acute biodistribution studies using female NIH Swiss mice (6-8 wk old, n=6). […] While surfactant was used in the injection formulation for biodistribution studies, it is hypothesized that once in the blood stream, ^89Zr-DOTAM aggregates with serum proteins, which are deposited in these tissues during circulation.

| SMILES | time by which cleared from the blood [h] |
| --- | --- |
| O=P([O-])(O)CN1CCN(CP(=O)([O-])O)CCN(CP(=O)([O-])O)CCN(CP(=O)([O-])O)CC1.[89Zr+4] [^89Zr-DOTP] | ≤ 72 |
| CC(=O)N([O-])CCCCCNC(=O)CCC(=O)N([O-])CCCCCNC(=O)CCC(=O)N([O-])CCCCCN.[89Zr+4] [^89Zr-DFO, reference compound] | ≤ 72 |
